Some of the results follow.
Tests used:
Assay in all cases: log2 fold change, soluble protein after heating vs DMSO (PISA); higher = thermal stabilisation; K562 cells, 10 uM, 30 min; active = over 0.2 and 3.5 SD of the protein, either way, in both replicates (recomputed)
[1] = compound: NC(=O)Nc1cc(-c2cccc(F)c2)sc1C(=O)N[C@H]1CCCNC1
Procedure, shortened: (§1)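 Values are thermal stability changes relative to control samples and are taken from duplicates. They are stated as log2 fold changes. Before quantification by TMTpro 16plex LC-MS/MS with equalised channel sums, K562 cells at 2×10^6 cells/mL were treated with 10 μM compound for 30 min, heated in aliquots for 3 min across 48°C-58°C, pooled, extracted in PBS with 0.5% NP-40 at 4°C, and centrifuged at 21,000xg for 90 min to give the soluble supernatant.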

The chains behind the UniProt entries cited, without tags or fusion partners. Where a name states a change or a piece, a line headed by the entry shows the natural chain unless it says otherwise.
UniProt Q9H0V1: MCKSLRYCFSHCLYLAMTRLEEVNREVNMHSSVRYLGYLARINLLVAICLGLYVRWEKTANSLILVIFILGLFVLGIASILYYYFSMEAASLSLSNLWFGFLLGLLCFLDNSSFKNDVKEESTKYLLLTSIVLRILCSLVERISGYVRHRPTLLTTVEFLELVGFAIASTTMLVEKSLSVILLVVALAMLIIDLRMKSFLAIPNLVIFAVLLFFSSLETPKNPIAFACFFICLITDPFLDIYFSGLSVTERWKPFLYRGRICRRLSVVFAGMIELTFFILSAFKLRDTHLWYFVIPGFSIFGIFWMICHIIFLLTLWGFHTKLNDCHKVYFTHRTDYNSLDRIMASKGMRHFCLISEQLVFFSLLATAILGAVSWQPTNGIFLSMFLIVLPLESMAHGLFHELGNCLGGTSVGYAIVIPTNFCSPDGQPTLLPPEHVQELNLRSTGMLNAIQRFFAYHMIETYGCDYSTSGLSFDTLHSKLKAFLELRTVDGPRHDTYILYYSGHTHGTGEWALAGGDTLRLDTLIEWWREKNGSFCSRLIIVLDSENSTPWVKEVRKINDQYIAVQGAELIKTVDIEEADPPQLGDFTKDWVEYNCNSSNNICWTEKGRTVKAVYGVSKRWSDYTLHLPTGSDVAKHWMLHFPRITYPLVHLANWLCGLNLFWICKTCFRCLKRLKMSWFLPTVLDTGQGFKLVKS
UniProt O94886: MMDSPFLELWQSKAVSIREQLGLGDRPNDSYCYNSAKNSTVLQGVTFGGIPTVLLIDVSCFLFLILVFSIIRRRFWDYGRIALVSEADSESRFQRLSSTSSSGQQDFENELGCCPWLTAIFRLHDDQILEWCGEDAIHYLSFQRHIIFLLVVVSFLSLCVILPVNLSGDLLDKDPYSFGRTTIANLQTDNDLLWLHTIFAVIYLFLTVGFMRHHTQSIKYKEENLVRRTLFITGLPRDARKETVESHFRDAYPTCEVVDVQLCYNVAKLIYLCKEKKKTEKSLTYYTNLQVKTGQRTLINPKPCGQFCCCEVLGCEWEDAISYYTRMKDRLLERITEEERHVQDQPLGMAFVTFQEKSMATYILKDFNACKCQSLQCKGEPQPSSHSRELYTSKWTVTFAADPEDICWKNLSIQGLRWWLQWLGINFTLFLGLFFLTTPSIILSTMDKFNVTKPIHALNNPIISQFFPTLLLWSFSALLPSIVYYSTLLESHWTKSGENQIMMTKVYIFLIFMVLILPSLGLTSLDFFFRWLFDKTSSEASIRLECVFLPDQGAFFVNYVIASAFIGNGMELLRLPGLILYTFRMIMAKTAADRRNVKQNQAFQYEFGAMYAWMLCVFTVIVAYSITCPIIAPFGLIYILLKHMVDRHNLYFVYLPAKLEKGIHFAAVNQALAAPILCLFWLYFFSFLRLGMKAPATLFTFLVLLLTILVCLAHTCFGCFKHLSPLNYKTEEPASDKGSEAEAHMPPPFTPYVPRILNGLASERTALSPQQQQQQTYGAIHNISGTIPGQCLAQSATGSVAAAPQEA
UniProt Q6ZT21: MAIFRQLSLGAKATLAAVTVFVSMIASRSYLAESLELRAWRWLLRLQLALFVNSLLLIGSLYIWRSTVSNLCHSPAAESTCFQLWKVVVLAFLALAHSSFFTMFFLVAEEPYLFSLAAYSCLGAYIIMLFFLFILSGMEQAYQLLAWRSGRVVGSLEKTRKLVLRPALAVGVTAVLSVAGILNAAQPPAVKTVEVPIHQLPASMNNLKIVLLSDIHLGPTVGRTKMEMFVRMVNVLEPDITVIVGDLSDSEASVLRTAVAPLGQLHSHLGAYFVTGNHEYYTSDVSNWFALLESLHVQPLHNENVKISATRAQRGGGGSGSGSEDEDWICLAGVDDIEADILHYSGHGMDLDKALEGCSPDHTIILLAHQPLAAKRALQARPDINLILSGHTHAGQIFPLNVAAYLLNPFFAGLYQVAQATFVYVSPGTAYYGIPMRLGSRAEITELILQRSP
UniProt Q9BRN9: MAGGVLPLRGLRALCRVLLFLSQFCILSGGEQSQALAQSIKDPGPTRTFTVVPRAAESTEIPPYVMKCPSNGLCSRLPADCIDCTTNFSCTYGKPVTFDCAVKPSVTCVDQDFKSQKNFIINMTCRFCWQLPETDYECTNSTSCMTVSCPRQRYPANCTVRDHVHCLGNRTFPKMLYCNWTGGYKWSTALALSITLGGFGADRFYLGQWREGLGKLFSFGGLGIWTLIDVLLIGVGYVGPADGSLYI
UniProt Q12893: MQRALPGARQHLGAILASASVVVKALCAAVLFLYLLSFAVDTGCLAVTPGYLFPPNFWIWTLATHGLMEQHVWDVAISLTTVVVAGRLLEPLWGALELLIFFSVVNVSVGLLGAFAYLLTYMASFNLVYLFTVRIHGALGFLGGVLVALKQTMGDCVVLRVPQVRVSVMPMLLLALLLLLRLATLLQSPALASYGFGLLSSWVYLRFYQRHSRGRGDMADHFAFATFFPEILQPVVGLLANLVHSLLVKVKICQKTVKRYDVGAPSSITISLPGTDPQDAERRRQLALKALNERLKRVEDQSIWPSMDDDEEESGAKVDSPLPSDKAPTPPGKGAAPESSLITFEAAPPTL
UniProt Q96K49: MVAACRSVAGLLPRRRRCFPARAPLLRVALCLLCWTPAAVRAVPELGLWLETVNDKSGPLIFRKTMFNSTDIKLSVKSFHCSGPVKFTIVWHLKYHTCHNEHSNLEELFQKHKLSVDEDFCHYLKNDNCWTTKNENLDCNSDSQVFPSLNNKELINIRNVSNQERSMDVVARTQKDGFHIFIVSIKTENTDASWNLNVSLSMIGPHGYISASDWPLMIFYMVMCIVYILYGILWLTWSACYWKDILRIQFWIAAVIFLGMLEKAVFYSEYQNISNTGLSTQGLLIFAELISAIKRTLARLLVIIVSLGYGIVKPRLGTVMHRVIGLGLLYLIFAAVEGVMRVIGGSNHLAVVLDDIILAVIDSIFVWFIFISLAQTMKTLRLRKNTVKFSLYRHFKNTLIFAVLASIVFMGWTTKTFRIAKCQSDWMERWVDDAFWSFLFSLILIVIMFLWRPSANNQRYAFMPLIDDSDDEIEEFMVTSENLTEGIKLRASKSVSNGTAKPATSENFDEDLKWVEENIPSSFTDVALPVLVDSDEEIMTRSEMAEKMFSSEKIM
UniProt Q9Y2S6, whole entry, looked up: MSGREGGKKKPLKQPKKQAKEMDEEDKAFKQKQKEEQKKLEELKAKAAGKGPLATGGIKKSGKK
UniProt Q9Y3Q3: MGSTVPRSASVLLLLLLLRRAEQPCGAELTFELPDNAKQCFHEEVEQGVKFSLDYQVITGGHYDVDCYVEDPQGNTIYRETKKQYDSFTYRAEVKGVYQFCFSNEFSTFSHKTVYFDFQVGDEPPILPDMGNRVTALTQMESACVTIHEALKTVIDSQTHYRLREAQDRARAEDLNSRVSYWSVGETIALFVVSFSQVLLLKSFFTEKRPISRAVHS
UniProt P63313: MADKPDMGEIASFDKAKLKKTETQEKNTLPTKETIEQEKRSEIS
UniProt Q9H1E5: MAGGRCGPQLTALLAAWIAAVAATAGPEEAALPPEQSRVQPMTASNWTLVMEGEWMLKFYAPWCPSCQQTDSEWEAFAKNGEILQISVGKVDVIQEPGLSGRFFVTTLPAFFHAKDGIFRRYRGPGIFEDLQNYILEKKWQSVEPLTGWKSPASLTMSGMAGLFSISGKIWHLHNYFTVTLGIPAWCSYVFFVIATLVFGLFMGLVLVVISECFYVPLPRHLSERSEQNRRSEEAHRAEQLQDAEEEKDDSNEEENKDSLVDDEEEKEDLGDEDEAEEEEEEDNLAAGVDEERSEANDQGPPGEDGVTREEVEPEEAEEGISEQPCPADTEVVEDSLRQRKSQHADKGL
UniProt Q6NUQ4: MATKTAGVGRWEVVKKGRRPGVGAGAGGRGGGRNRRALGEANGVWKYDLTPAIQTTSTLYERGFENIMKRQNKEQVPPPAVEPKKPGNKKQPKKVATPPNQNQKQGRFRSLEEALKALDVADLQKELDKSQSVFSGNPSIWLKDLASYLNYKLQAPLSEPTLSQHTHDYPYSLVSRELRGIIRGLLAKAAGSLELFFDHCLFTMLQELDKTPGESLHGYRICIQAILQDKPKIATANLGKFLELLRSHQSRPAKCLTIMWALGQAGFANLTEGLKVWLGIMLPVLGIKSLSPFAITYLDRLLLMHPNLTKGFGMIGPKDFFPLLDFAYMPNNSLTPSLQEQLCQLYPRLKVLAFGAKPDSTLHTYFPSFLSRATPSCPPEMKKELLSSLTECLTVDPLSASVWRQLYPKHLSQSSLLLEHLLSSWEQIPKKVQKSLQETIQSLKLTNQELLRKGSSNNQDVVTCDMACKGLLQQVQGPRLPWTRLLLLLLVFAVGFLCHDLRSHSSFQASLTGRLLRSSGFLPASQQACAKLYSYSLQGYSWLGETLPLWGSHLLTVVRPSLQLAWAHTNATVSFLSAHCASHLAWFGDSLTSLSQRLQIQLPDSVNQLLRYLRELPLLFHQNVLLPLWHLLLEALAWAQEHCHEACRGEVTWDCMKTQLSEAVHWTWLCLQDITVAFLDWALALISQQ
UniProt Q9BVK6: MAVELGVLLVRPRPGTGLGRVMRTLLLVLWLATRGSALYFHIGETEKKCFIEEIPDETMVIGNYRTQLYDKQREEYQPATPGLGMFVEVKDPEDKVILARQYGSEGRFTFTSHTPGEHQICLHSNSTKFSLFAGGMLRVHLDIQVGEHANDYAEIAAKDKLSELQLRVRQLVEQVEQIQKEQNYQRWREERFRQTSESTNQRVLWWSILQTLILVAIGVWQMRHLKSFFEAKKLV
UniProt Q9BTX3: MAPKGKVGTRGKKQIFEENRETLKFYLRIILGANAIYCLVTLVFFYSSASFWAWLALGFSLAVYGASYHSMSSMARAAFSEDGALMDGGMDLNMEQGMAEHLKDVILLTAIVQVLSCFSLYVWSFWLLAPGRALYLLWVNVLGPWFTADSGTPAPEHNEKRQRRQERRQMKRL
UniProt Q9NX00: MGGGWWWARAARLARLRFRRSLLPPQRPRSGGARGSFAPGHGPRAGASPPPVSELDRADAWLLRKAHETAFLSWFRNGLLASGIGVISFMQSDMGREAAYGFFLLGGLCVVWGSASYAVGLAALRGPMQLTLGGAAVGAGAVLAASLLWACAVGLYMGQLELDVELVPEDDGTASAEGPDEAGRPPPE
UniProt Q9UKI8: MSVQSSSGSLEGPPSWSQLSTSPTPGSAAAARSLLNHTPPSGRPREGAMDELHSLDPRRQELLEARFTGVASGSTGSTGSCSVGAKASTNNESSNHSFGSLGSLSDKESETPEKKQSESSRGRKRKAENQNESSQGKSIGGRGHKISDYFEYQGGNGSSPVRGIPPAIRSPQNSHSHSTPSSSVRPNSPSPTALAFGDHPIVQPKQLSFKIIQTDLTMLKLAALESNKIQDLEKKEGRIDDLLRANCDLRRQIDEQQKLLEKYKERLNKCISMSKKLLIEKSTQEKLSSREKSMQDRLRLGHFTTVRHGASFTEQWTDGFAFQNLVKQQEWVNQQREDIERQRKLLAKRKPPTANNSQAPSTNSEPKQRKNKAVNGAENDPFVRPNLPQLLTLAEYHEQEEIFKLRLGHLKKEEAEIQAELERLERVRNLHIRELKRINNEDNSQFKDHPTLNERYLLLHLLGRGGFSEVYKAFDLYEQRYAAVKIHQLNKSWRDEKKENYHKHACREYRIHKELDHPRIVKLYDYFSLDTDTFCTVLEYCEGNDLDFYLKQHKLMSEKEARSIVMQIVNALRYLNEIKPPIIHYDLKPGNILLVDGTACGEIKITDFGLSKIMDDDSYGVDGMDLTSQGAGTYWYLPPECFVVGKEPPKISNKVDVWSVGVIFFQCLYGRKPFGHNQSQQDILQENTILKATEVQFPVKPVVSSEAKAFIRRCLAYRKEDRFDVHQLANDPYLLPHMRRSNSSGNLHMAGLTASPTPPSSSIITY
UniProt Q9HC07: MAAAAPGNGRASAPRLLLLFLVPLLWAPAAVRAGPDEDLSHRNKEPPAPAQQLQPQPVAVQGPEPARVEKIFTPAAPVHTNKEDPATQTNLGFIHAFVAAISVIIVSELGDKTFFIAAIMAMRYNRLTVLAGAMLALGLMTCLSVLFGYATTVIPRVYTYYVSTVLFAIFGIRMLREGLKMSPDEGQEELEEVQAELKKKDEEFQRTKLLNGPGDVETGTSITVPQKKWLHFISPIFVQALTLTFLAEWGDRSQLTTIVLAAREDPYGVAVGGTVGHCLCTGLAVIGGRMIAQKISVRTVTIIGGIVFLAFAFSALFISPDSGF
UniProt Q9NVA4: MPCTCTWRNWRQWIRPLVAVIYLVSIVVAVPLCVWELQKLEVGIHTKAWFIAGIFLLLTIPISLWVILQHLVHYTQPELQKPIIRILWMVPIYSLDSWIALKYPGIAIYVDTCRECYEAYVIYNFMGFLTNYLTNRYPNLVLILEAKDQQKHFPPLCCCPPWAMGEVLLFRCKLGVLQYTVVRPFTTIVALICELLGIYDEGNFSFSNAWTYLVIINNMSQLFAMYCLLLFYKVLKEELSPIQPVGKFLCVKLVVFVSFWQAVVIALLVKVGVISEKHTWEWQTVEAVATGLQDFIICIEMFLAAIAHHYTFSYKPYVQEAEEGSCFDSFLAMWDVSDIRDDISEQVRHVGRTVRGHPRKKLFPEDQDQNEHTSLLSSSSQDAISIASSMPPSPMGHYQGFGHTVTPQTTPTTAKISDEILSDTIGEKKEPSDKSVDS

[2] = compound: NC(=O)c1cnc(N[C@@H]2CCCC[C@@H]2N)nc1Nc1cccc(-n2nccn2)c1
Procedure, shortened: as §1

[3] = compound: NC1(c2ccc(-c3nc4ccn5c(=O)[nH]nc5c4cc3-c3ccccc3)cc2)CCC1
Procedure, shortened: as §1

[4] = compound: NCC(=O)Nc1ccc(-n2nc(C(F)(F)F)cc2-c2ccc3c(ccc4ccccc43)c2)cc1
Procedure, shortened: as §1

entinostat = compound: Nc1ccccc1NC(=O)c1ccc(CNC(=O)OCc2cccnc2)cc1 [entinostat]
Procedure, shortened: as §1

vorinostat = compound: O=C(CCCCCCC(=O)Nc1ccccc1)NO [vorinostat]
Procedure, shortened: as §1

citarinostat = compound: O=C(CCCCCCNC(=O)c1cnc(N(c2ccccc2)c2ccccc2Cl)nc1)NO [citarinostat]
Procedure, shortened: as §1

silmitasertib = compound: O=C(O)c1ccc2c(c1)nc(Nc1cccc(Cl)c1)c1ccncc12 [silmitasertib]
Procedure, shortened: as §1

[5] = compound: O=C1NC(=O)C(c2cnc3ccccn23)=C1c1cn2c3c(cc(F)cc13)CN(C(=O)N1CCCCC1)CC2
Procedure, shortened: as §1

[6] = compound: c1cc(OCCN2CCCCC2)cc(-c2n[nH]c3ccc(-c4nnc[nH]4)cc23)c1
Procedure, shortened: as §1

Target | log2 fold change [1] | log2 fold change [2] | log2 fold change [3] | log2 fold change [4] | log2 fold change (entinostat) | log2 fold change (vorinostat) | log2 fold change (citarinostat) | log2 fold change (silmitasertib) | log2 fold change [5] | log2 fold change [6]
TMEM245 (UniProt Q9H330) | inactive: -0.016 | inactive: 0.02 | inactive: -0.039 | inactive: 0.003 | inactive: 0.013 | inactive: -0.085 | inactive: 0.029 | inactive: 0.001 | inactive: 0.023 | inactive: 0.014
TMEM168 (UniProt Q9H0V1) | inactive: 0.005 | inactive: 0.02 | inactive: -0.031 | inactive: 0.065 | inactive: 0.056 | inactive: 0.037 | inactive: 0.079 | inactive: 0.008 | inactive: 0.253 | inactive: -0.124
TMEM63A (UniProt O94886) | inactive: -0.048 | inactive: 0.207 | inactive: 0.002 | inactive: 0.088 | inactive: -0.099 | inactive: -0.066 | inactive: -0.027 | inactive: -0.032 | inactive: -0.042 | inactive: -0.022
TMPPE (UniProt Q6ZT21) | inactive: -0.009 | inactive: -0.029 | inactive: -0.022 | inactive: 0.027 | inactive: -0.032 | inactive: 0.08 | inactive: -0.014 | inactive: 0.037 | inactive: -0.021 | inactive: -0.033
TM2D3 (UniProt Q9BRN9) | inactive: -0.064 | inactive: -0.227 | inactive: -0.151 | inactive: -0.079 | inactive: 0.062 | inactive: -0.077 | inactive: -0.042 | inactive: 0.104 | inactive: 0 | inactive: -0.223
TMEM106B (UniProt Q9NUM4) | inactive: -0.042 | inactive: -0.038 | inactive: -0.056 | inactive: -0.016 | inactive: 0.008 | inactive: -0.023 | inactive: 0.022 | inactive: 0.034 | inactive: 0 | inactive: 0.046
TMEM115 (UniProt Q12893) | inactive: -0.009 | inactive: -0.027 | inactive: 0.017 | inactive: 0.027 | inactive: 0.053 | inactive: 0.05 | inactive: 0.005 | inactive: 0.071 | inactive: -0.156 | inactive: -0.042
TMEM9 (UniProt Q9P0T7) | inactive: -0.008 | inactive: 0.047 | inactive: -0.113 | inactive: 0.063 | inactive: -0.026 | inactive: -0.053 | inactive: 0.1 | inactive: -0.044 | inactive: -0.031 | inactive: 0.065
TMEM263 (UniProt Q8WUH6) | inactive: -0.044 | inactive: -0.335 | inactive: -0.389 | inactive: -0.299 | inactive: 0.123 | inactive: 0.058 | inactive: 0.068 | inactive: 0.057 | inactive: -0.08 | inactive: -0.037
TMEM87B (UniProt Q96K49) | inactive: -0.098 | inactive: -0.062 | inactive: -0.266 | inactive: -0.1 | inactive: 0.135 | inactive: 0.057 | inactive: 0.021 | inactive: 0.096 | inactive: -0.032 | inactive: -0.117
TMA7 (UniProt Q9Y2S6) | inactive: -0.042 | inactive: -0.035 | inactive: 0.023 | inactive: 0.021 | inactive: 0 | inactive: -0.085 | inactive: -0.049 | inactive: -0.027 | inactive: -0.029 | inactive: 0.007
TMED3 (UniProt Q9Y3Q3) | inactive: -0.002 | inactive: -0.054 | inactive: -0.123 | inactive: -0.078 | inactive: 0.055 | inactive: 0.051 | inactive: 0.015 | inactive: -0.021 | inactive: -0.109 | inactive: 0.05
TMEM9B (UniProt Q9NQ34) | inactive: -0.025 | inactive: 0.004 | inactive: -0.093 | inactive: -0.111 | inactive: 0.025 | inactive: 0.051 | inactive: 0.023 | inactive: 0.038 | inactive: 0.043 | inactive: -0.121
TMED5 (UniProt Q9Y3A6) | inactive: -0.016 | inactive: -0.088 | inactive: -0.094 | inactive: -0.033 | inactive: -0.031 | inactive: 0.125 | inactive: -0.007 | inactive: -0.004 | inactive: 0.062 | inactive: -0.085
TMSB10 (UniProt P63313) | inactive: 0.016 | inactive: 0.087 | inactive: 0.069 | inactive: 0.056 | inactive: 0.091 | inactive: -0.25 | inactive: -0.016 | inactive: -0.063 | inactive: -0.083 | inactive: 0.16
TMX4 (UniProt Q9H1E5) | inactive: -0.055 | inactive: 0.077 | inactive: -0.043 | inactive: 0.004 | inactive: -0.042 | inactive: -0.08 | inactive: -0.027 | inactive: 0.034 | inactive: 0.015 | inactive: -0.058
TMEM223 (UniProt A0PJW6) | inactive: -0.087 | inactive: -0.14 | inactive: -0.1 | inactive: 0.071 | inactive: -0.02 | inactive: 0.096 | inactive: -0.031 | inactive: 0.019 | inactive: 0.05 | inactive: -0.036
TMED4 (UniProt Q7Z7H5) | inactive: -0.015 | inactive: -0.039 | inactive: 0 | inactive: -0.054 | inactive: 0.003 | inactive: -0.027 | inactive: -0.122 | inactive: -0.009 | inactive: -0.013 | inactive: 0.061
TMEM214 (UniProt Q6NUQ4) | inactive: -0.01 | inactive: 0.049 | inactive: -0.003 | inactive: 0.022 | inactive: 0.003 | inactive: 0.047 | inactive: -0.01 | inactive: 0.006 | inactive: 0.02 | inactive: -0.022
TMED9 (UniProt Q9BVK6) | inactive: -0.014 | inactive: 0.023 | inactive: -0.036 | inactive: -0.011 | inactive: -0.029 | inactive: -0.058 | inactive: 0.016 | inactive: -0.029 | inactive: 0.023 | inactive: -0.076
TMEM208 (UniProt Q9BTX3) | inactive: 0.038 | inactive: -0.133 | inactive: -0.28 | inactive: -0.181 | inactive: -0.01 | inactive: 0.187 | inactive: 0.036 | inactive: 0.048 | inactive: 0.02 | inactive: -0.09
TMEM160 (UniProt Q9NX00) | inactive: 0.042 | inactive: 0.017 | inactive: 0.143 | inactive: -0.112 | inactive: -0.058 | inactive: 0.06 | inactive: 0.013 | inactive: -0.041 | inactive: 0.045 | inactive: -0.177
TLK1 (UniProt Q9UKI8) | inactive: -0.062 | inactive: -0.074 | inactive: -0.063 | inactive: -0.034 | inactive: 0.042 | inactive: 0.027 | inactive: 0.049 | inactive: -0.002 | inactive: 0.002 | inactive: -0.074
TM9SF1 (UniProt O15321) | inactive: 0.026 | inactive: 0.012 | inactive: -0.086 | inactive: 0.133 | inactive: -0.085 | inactive: -0.061 | inactive: -0.071 | inactive: -0.021 | inactive: -0.128 | inactive: -0.021
TMEM165 (UniProt Q9HC07) | inactive: -0.007 | inactive: 0.054 | inactive: 0.055 | inactive: -0.121 | inactive: -0.008 | inactive: -0.044 | inactive: 0.019 | inactive: -0.04 | inactive: -0.014 | inactive: 0.034
TMEM177 (UniProt Q53S58) | inactive: -0.014 | inactive: -0.008 | inactive: -0.043 | active: 0.347 | inactive: -0.021 | inactive: -0.048 | inactive: 0.068 | inactive: -0.019 | inactive: 0.048 | inactive: -0.042
TMEM184C (UniProt Q9NVA4) | inactive: -0.185 | inactive: 0.069 | active: -0.401 | inactive: -0.07 | inactive: -0.218 | inactive: 0.08 | inactive: -0.065 | inactive: -0.004 | inactive: -0.055 | inactive: 0.022

Shown with tabs: entries from further up
Target	log2 fold change [1]	log2 fold change [2]	log2 fold change [3]	log2 fold change [4]	log2 fold change (entinostat)	log2 fold change (vorinostat)	log2 fold change (citarinostat)	log2 fold change (silmitasertib)	log2 fold change [5]	log2 fold change [6]
TMEM87B (UniProt Q96K49)	inactive: -0.098	inactive: -0.062	inactive: -0.266	inactive: -0.1	inactive: 0.135	inactive: 0.057	inactive: 0.021	inactive: 0.096	inactive: -0.032	inactive: -0.117
TMED4 (UniProt Q7Z7H5)	inactive: -0.015	inactive: -0.039	inactive: 0	inactive: -0.054	inactive: 0.003	inactive: -0.027	inactive: -0.122	inactive: -0.009	inactive: -0.013	inactive: 0.061

Source: the supplement of paper PMC10849652
